The results in this text go back to patent US7128898B2, “Method of minimizing cell lysis and toothpaste and mouthwash with reduced irritancy” (priority 1999, dated 2006).

One assay concerns Candida albicans. The assay can be described thus: Mouthwash antimicrobial effectiveness, timed exposure and plating. The class given is cell-based. On the procedure:
(§1) Three mouthwash test preparations were evaluated for antimicrobial properties against Candida albicans and Streptococcus mutans. Cell suspensions of each organism were exposed to three mouthwash preparations, separately, over multiple timepoints; plated on blood agar (BAP); incubated at 35° C.; and colony counts recorded at 24 and 48 hours respectively. […] McFarland cell suspensions of C. albicans and S. mutans (ATCC 35668) were made in tryptone yeast extract broth (Sensibroth) yielding, approximate cell densities of 1.5×10^8 cells/ml. 50 μl of each organism were plated as a growth control. […] C albicans plates were incubated in oxygen at 35 degrees Centigrade. S. mutans plates were incubated in carbon dioxide at 35 degrees Centigrade.

The subject of assay [1] is Streptococcus mutans (ATCC 35668). The description is as above. Type of assay: cell-based. On the procedure:
as §1

Molecules are shown by their SMILES.

Consider `CCCCCCCCCCCCCCCC[n+]1ccccc1` [CPC, Cetylpyridinium Chloride], for which the “exposure at which C. albicans is effectively killed” value with Candida albicans is at most 10 s. The “exposure at which S. mutans is effectively killed” value in assay [1] is at most 10 s.
